In patent US20200166512A1 (CENTRE NATIONAL DE LA RECHERCHE SCIENTIFIQUE, published 2020):
These are yes or no findings as the source states them, for the method shown. Some entries that bind do so weakly or less than the wild type. Where no end group is shown, it is not given here.

Key:
[1] = molecular target: T1, mouse IL4I1 protein, recombinant or endogenous (mouse) (UniProt O09046); assay: ELISA, mouse IL4I1
T1 sequence (looked up): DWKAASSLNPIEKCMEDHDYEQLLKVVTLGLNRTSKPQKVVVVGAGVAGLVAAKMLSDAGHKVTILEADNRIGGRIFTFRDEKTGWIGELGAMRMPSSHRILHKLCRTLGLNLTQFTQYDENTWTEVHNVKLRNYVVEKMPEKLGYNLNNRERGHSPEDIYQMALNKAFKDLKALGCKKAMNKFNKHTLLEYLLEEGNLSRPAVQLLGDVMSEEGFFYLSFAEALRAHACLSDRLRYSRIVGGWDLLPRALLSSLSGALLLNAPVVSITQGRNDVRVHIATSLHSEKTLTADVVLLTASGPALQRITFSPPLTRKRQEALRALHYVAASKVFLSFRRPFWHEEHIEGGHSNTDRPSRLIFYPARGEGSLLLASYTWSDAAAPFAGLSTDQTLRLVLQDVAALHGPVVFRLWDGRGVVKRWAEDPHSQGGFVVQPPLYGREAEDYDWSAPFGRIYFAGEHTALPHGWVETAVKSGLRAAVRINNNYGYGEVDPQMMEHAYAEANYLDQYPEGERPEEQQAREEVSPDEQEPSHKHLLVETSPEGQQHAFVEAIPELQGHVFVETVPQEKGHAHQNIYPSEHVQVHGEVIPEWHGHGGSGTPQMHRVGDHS

[2] = molecular target: T1, mouse IL4I1 protein, recombinant or endogenous (mouse); assay: single layer ELISA
[3] = molecular target: T1, mouse IL4I1 protein, recombinant or endogenous (mouse); assay: flow cytometry, mouse IL4I1
[4] = molecular target: T1, mouse IL4I1 protein, recombinant or endogenous (mouse); assay: immunohistochemistry, mouse IL4I1
[5] = molecular target: T1, mouse IL4I1 protein, recombinant or endogenous (mouse); assay: flow cytometry on mouse splenocytes
[6] = molecular target: T1, mouse IL4I1 protein, recombinant or endogenous (mouse); assay: immunohistochemistry on WT versus IL4I1 KO mouse spleens

Measured: binding

B1: anti-IL4I1 antibody D-5 IgG/λ (rabbit monoclonal, clone D-5, hybridoma CNCM I-5355) (antibody, V domains shown)
VH: QQQLVESGGDLVKPEGSLTLTCTASGFSLSAGYFICWIRQAPGKGLEWIGSVFSGSSGTTYYASWAKGRFTISKTSSTTVTLQMTSLTAADTAIYFCARGGVLGGRVAYDNSFDHWGPGTLVTVSS
VL: ELVLTQSPSVSAALGASAKLTCTLSSAHSTYTIEWYQQQPGESPRYLMQLKSDGSYTKGTGVPDRFSGSSSGADRYLIIFSVQADDEADYYCGANYSSGYVFGGGTQLTVT
notes: Rabbit IgG/lambda from a hybridoma; It was used as hybridoma supernatant (clone D) or as purified IgG (subclone D-5); also called IgG D-5; AbD-5
binds: all assays above
